Test results taken from paper PMC3025952, “Characterization of a core fragment of the rhesus monkey TRIM5α protein” (BMC Biochemistry, 2011).
These are yes or no findings as the source states them, for the method shown. Some results given as binding are weak or reduced against the parent protein; the word gives no strength.

Target: BCCL2 LLER protein (L105E, L106E, E120R, R121E), His6-tagged, from E. coli (rhesus monkey) (UniProt Q0PF16)
Assay: SEC; Superdex 200 (10/30) column calibrated with globular molecular-weight markers, PBS; for LLER also with 25 μM ZnCl2 and DTT (profile not significantly affected); both purified

B1: BCCL2 LLER protein (L105E, L106E, E120R, R121E), His6-tagged, from E. coli (domain or fragment, rhesus monkey)
chain: GSGLVPRGSASMSDSEVNQEAKPEVKLSPEEGQKVDHCARHGEKLEEFCQEDSKVICWLCRESQEHRGHHTFLMEEVAQEYHVKLQTALEMLRQKQQEAEKLEADIREEKASWKIQIDYDKTNVSADFEQLREILDWEESNELQNLEKEEEDILKSLTKSETEMVQQTQYMRELISELEHRLQGSMMDLLQGVDGIIKRIENMTLKKPKTFHKNQRRVFRAPDLKGMLDMFRELTDA
notes: vector-derived spacer between the His6 tag and E83 of TRIM5αrh; also called LLER variant; source: E. coli BL21(DE3)pLysS, purified (Ni-NTA, anion exchange, SEC); not shown: His6, N-terminal, kept
**Q.** For B1, which binding is on record?
**A.** binds
